Reference: patent publication US20220177593A1
Results are given in words; binding and its absence hold for the method and conditions named. Some binding calls cover weakened binding; strength is not graded here.

Sequences of proteins named here, by UniProt entry; tags and fusion partners are left off. A change or cut given only in a name is not applied to a line headed by its entry.
UniProt P30530: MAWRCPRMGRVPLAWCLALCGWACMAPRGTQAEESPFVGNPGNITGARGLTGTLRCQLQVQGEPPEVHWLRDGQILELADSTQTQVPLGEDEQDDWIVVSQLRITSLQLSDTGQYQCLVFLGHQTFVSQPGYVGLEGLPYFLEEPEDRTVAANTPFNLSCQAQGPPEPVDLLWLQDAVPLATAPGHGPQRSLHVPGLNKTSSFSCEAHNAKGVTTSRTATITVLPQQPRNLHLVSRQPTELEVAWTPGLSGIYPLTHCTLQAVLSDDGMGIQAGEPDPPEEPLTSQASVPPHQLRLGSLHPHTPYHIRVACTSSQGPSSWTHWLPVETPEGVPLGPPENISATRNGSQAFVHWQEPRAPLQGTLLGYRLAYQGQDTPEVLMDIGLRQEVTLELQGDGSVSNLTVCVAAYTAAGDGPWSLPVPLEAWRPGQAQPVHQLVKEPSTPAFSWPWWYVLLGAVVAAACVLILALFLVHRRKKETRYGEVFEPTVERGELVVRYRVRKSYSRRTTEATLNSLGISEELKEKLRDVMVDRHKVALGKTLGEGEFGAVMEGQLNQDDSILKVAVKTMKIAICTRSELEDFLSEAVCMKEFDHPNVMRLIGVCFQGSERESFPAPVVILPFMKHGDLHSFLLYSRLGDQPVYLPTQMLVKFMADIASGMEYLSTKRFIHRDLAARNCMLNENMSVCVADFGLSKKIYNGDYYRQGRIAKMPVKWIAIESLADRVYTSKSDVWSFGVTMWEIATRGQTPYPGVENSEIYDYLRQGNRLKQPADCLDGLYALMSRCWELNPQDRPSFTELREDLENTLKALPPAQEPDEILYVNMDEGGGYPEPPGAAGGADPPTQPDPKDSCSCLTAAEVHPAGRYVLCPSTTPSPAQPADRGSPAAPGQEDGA

Molecular target: Domain 1 and Domain 2 of Axl-ECD (human) (UniProt P30530)
Assay: ELISA on purified Axl domains coated on plates, Ab301 at 5 ug/mL

- binding: binds
B1: Ab301 (antibody, human IgG1, V domains shown)
VH: EVKLEASGGGLVQPGMSVKLSCTTSGFTFSDYWMEWVRQAPGKGLEWVAEIRNKVNNYATYYGKSVKGRFTISRDDSKSIVYLQMNSIRSEDTGIYYCNTLRLFAYWGQGTLVTVSA
VL: DIVMTQAPLSISVTPGESPSMSCRSSKSLLHRNGITYVYWYLQKPGKSPQLLIYRMSTLASGVPDRFSGSGSETDFTLKINKVEAEDVGIYYCGQLLENPYTFGAGTRLEIK
